Measured values from PMC3510188.

By UniProt entry, the sequences of proteins in these tests, tags left out. Where a name states a change or a piece, a line headed by the entry shows the natural chain unless it says otherwise.
UniProt Q86VP1: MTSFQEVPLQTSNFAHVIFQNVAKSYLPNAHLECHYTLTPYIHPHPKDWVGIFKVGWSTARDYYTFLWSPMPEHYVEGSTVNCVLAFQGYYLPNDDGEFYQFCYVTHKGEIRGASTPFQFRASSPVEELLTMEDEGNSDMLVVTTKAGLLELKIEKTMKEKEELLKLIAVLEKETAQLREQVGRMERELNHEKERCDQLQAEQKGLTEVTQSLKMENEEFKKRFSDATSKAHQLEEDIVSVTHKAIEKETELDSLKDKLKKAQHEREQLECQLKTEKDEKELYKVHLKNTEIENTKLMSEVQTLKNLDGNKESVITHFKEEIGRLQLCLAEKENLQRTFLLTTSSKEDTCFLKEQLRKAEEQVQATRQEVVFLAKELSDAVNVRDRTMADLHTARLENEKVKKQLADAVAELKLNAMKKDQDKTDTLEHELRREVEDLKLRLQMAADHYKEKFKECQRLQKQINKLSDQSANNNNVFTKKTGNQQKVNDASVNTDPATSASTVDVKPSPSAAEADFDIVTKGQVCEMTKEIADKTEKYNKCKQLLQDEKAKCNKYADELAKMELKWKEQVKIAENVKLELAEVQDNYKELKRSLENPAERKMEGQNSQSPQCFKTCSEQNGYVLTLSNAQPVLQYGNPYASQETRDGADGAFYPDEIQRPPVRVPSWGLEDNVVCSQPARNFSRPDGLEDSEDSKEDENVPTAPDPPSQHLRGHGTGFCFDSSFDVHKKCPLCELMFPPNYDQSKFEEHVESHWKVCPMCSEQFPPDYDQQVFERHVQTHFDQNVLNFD
UniProt Q9UHD2: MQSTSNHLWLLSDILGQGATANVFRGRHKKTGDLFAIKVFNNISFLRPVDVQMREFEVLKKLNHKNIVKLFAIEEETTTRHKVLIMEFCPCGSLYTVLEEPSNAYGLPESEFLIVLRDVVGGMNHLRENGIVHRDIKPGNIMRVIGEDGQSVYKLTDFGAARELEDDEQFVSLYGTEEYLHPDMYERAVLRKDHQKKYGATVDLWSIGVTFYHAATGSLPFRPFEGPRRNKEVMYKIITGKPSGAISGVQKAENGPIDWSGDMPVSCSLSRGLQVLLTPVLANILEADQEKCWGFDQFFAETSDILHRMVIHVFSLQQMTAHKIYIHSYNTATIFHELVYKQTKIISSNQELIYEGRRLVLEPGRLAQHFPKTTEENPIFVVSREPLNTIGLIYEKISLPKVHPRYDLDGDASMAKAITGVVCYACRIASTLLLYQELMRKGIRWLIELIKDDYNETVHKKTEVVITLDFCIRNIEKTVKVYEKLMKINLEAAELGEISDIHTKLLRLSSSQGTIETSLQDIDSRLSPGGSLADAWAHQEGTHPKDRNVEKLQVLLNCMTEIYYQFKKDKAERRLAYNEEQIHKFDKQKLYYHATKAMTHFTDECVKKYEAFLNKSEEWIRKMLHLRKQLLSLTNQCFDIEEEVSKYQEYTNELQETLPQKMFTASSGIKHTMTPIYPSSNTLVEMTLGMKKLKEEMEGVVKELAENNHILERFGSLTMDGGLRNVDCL

Target: myc-TAX1BP1 (human) (UniProt Q86VP1)
Assay: co-IP; 293FT cells 48 h after transfection with pcDNA 3.1 myc-Tax1bp1 or pcDNA 3.1 myc-His, lysed in IGEPAL IP buffer; immunoprecipitation for 4 hours with anti-myc magnetic beads, three washes in lysis buffer; blots

TBK1 (TANK-binding kinase 1) (from UniProt Q9UHD2 1-729)
binding: binds

No constants are given. Whether binding was seen depends on the method and setting. In cells and extracts the contact can be indirect. A result given as binding can be weak or reduced; the word gives no strength.
